Measured values from article PMC6990627 (ACS Omega, 2020).
Counter-ions that a name gives are not always drawn.

Columns and labels:
[1] = PAMPA-BBB; values over 3.3 × 10^–6 cm/s said to cross the BBB
in vitro = details: PAMPA, pH 7.4

With `COc1cc2c(cc1OC)C(=O)C(CC1CCN(Cc3ccccc3)CC1)C2` (centres unmarked) [donepezil HCl, donepezil hydrochloride] the BBB/CNS permeability classification [1] was “CNS+” and the Papp at 18 h, 100 μM (in vitro) was 9.54 ×10⁻⁶ cm/s.
